Laboratory results published in publication PMC8565065.
These are yes or no findings as the source states them, for the method shown. Binding seen in cells or lysates may run through a third protein. Some entries that bind do so weakly or less than the wild type.

The chains behind the UniProt entries cited, without tags or fusion partners. Residues count along the entry.
UniProt P02649, residues 19-317: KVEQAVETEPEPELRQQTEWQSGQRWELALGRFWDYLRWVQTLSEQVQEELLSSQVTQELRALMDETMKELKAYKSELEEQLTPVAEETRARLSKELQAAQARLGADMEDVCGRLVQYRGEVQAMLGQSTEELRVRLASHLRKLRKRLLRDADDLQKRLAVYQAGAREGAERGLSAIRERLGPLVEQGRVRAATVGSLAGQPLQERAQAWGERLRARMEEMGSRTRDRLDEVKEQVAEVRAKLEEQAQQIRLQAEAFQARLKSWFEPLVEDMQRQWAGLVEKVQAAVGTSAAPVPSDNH
UniProt P78509, residues 26-3460: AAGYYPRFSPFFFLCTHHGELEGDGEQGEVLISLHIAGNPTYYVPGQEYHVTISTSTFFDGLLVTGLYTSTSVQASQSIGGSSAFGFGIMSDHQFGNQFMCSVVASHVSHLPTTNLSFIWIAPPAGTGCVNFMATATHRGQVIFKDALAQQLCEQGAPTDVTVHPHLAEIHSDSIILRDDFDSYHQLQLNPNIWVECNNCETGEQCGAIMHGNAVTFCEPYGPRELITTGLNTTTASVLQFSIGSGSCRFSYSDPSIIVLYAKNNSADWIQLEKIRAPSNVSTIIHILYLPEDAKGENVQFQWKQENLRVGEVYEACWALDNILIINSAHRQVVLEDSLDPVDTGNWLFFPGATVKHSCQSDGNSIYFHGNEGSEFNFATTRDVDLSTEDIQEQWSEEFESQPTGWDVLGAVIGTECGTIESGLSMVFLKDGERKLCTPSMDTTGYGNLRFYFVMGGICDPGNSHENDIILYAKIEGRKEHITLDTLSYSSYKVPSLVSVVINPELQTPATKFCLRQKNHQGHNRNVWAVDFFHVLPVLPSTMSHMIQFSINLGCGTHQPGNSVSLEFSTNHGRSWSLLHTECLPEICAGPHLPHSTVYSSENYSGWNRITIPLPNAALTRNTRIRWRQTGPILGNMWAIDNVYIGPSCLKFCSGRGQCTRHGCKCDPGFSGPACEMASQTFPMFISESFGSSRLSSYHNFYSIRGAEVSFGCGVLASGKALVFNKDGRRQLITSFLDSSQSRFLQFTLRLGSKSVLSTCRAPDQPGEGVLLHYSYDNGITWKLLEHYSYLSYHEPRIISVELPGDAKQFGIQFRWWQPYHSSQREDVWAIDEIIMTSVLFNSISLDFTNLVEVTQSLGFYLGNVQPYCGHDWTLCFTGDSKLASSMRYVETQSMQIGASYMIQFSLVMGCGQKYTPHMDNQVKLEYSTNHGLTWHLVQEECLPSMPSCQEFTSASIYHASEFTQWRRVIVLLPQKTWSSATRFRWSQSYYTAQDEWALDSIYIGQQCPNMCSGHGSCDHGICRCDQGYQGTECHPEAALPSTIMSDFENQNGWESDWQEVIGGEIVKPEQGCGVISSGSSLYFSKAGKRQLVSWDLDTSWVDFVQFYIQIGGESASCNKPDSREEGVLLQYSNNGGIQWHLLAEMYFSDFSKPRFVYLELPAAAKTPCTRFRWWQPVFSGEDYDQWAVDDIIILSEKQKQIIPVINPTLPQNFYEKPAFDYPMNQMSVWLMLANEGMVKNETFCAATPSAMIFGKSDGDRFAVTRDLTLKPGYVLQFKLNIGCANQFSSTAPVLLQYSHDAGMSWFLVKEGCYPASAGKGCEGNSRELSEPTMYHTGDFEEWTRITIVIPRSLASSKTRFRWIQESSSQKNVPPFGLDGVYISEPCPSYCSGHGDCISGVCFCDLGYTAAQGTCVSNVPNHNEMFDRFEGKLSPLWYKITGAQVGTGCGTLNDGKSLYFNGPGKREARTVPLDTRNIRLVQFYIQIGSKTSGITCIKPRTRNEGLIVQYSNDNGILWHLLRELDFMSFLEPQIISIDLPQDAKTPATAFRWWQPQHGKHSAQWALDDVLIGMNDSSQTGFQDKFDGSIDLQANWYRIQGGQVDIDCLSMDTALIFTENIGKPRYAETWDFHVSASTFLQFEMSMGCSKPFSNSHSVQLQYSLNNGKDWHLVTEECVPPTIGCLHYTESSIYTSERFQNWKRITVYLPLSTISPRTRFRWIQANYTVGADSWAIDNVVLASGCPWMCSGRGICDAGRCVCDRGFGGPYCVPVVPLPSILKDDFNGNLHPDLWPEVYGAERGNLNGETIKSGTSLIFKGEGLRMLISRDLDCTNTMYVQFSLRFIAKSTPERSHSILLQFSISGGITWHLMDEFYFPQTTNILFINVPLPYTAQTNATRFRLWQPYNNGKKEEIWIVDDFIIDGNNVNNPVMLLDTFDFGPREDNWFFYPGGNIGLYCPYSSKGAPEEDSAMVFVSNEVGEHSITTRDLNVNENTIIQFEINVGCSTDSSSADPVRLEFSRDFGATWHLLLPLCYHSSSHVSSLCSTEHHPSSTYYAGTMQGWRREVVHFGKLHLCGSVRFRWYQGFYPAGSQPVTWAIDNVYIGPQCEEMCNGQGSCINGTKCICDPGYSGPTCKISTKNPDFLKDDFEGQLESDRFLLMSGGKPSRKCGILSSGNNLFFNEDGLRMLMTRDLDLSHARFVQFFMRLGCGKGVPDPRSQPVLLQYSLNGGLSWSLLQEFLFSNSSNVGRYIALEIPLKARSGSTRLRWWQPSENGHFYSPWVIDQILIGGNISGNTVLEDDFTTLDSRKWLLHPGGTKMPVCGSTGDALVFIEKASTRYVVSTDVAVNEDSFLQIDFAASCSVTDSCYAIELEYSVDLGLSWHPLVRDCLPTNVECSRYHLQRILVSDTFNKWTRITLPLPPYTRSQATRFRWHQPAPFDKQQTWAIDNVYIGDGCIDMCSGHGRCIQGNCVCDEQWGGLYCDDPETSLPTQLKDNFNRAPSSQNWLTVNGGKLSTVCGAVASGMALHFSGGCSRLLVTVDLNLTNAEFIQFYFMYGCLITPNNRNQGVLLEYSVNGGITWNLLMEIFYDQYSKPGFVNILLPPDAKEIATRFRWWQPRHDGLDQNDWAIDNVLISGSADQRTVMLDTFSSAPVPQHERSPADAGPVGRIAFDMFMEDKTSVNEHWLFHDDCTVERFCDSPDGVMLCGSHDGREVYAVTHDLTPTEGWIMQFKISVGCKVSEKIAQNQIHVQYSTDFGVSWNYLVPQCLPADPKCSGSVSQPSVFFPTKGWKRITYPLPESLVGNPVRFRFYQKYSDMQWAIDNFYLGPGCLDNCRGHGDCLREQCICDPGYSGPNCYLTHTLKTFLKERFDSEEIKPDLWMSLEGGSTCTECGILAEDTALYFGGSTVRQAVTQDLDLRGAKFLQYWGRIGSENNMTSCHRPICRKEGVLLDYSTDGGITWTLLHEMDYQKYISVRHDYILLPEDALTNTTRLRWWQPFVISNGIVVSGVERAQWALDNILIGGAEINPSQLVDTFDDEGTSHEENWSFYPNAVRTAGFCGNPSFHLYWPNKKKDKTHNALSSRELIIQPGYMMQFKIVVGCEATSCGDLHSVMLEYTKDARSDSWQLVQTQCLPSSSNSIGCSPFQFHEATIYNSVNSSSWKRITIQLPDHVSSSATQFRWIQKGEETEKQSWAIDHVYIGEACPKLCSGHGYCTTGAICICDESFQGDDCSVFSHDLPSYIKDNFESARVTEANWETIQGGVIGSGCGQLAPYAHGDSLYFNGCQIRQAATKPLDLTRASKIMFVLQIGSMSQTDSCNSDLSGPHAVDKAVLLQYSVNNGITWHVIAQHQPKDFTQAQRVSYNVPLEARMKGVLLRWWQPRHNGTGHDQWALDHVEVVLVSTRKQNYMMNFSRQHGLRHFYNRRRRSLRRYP

Target: T1, low-density lipoprotein receptor-related protein 3 (LRP3), endogenous in human frontal cortex (human (endogenous in frontal cortex)) (UniProt O75074)
T1 sequence: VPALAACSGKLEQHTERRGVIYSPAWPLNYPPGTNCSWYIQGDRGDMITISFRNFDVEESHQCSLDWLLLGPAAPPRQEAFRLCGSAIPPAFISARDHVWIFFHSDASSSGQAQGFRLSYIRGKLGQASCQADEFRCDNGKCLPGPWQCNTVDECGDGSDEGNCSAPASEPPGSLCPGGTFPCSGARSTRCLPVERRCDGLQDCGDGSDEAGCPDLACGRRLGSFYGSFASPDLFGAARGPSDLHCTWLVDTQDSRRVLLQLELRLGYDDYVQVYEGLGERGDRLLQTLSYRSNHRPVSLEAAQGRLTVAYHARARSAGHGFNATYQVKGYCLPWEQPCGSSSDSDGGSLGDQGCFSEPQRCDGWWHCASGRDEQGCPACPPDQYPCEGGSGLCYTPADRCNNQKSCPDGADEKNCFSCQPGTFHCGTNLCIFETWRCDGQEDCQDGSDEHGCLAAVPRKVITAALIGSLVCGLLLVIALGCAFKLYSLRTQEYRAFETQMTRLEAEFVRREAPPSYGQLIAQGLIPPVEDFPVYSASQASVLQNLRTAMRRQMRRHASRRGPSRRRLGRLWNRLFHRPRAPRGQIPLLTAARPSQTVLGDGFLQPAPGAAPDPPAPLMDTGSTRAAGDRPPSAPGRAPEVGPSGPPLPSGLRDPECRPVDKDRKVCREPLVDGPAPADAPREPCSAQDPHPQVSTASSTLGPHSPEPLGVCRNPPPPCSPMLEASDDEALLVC
Assay: co-IP; human frontal cortex extracts (100 μL; MA and AD-related pathology cases) incubated 2.5 h at room temperature with magnetic beads coupled to an anti-C-terminal LRP3 antibody; mouse IgG as negative control; input, bound and unbound fractions blotted

Substance | binding
apolipoprotein E (apoE), endogenous in human frontal cortex (from UniProt P02649 19-317) (ligand) | binds
reelin, endogenous in human frontal cortex (from UniProt P78509 26-3460) (ligand) | no binding
